# PubChem BioAssay AID248 (DTP/NCI, 2004)
# The list is a part of this screen's results and no random one: it gathers tests that were run many times, whatever their T/C, doses with no T/C, and many T/C values between a quarter and a half above the control. Further doses and runs are listed elsewhere. T/C is the treated group as % of the vehicle group. Some entries give survivors of the animals treated and no T/C: the source files T/C as zero there, which appears to mark a toxic dose or a test without result, not a measured value. Some doses without a T/C left all or most animals alive at the check, yet need not have been tolerated: survival well below the control is almost never listed, so the zero probably covers shortened survival too. Counts of survivors are from the toxicity check (mostly the fifth day) where no day follows; animals may have died later. Schedules are NCI's codes, read here as Q, the interval in days (D) or hours (H), X, the number of doses. Some entries were tested several times; the results are listed from low to high. Where survival is the endpoint, this PubChem deposit counts one and a half times the control or more as active, and values a quarter to a half above the control carry no call in these data; other NCI protocols may use other cut-offs. Some T/C values are followed by the survivors on the day toxicity was checked, most often the fifth; without a count, all were alive then.
# System: L1210 leukemia ip in BDF1 mice, survival T/C
# Assay: NCI In Vivo Anticancer Drug Screen. Data for tumor model L1210 Leukemia (intraperitoneal) in B6D2F1 (BDF1) mice
# Settings: T/C endpoint: mean survival time, higher T/C = longer survival
# [1] = dose: 300.0 mg/kg/injection, schedule: Q01DX001 (ip), vehicle: saline
# [2] = dose: 400.0 mg/kg/injection, schedule: Q01DX001 (ip), vehicle: saline
# [3] = dose: 400.0 mg/kg/injection, schedule: Q04DX003 (ip), vehicle: saline with Tween-80
# [4] = dose: 400.0 mg/kg/injection, schedule: Q04DX003 (ip), vehicle: saline
# [5] = dose: 200.0 mg/kg/injection, schedule: Q04DX003 (ip), vehicle: Klucel (hydroxypropylcellulose) (HPC)
# [6] = dose: 400.0 mg/kg/injection, schedule: Q04DX003 (ip), vehicle: Klucel (hydroxypropylcellulose) (HPC)
compound,measurement,setting,value
O=C(O)C(C(=O)O)C(=O)O,survivor count,[1],1 of 6
N#CC(C#N)=Cc1cc(Cl)ccc1O,survivor count,[2],1 of 4
CCC1NCCc2cc(OC)c(O)cc21 (centres undefined),survivor count,[1],1 of 6
O=Cc1cc([N+](=O)[O-])ccc1Cl,survivor count,[3],5 of 6
C=C[C+](CCCC)C(=O)[O-],survivor count,"dose: 200.0 mg/kg/injection, schedule: Q04DX003 (ip), vehicle: saline",2 of 6
same,survivor count,"dose: 335.0 mg/kg/injection, schedule: Q01DX009 (ip), vehicle: saline",0 of 6
same,survivor count,"dose: 400.0 mg/kg/injection, schedule: Q01DX001 (ip), vehicle: acetone",0 of 6
Cc1ccc(S(=O)(=O)N/N=C2\C(=O)C3CCC2C3Cl)cc1 (centres undefined),survivor count,"dose: 300.0 mg/kg/injection, schedule: Q01DX001 (ip), vehicle: other",0 of 6
CCN(CC)CCCOC(=O)N(Cc1ccc(Cl)cc1)C1CC1,survivor count,"dose: 100.0 mg/kg/injection, schedule: Q01DX009 (ip), vehicle: saline with Tween-80",3 of 6
same,survivor count,"dose: 200.0 mg/kg/injection, schedule: Q04DX003 (ip), vehicle: saline with Tween-80",2 of 6
same,survivor count,[3],0 of 6
O=C1C/C(=C\c2ccccc2O)C(=O)c2ccccc21,survivor count,"dose: 100.0 mg/kg/injection, schedule: Q04DX002 (ip), vehicle: Klucel (hydroxypropylcellulose) (HPC)",1 of 3
same,survivor count,"dose: 200.0 mg/kg/injection, schedule: Q04DX002 (ip), vehicle: Klucel (hydroxypropylcellulose) (HPC)",0 of 3
same,survivor count,"dose: 400.0 mg/kg/injection, schedule: Q04DX002 (ip), vehicle: Klucel (hydroxypropylcellulose) (HPC)",0 of 3
CCCCCCCCCCCCCCCCCC1=NC(C)CC(C)(C)O1 (centres undefined),survivor count,[4],2 of 6
CCOC(=O)Nc1cc2c(c(N)n1)N=C(c1ccc(-c3ccccc3)cc1)CN2,T/C,"dose: 100.0 mg/kg/injection, schedule: Q01DX001 (ip), vehicle: Klucel (hydroxypropylcellulose) (HPC)",131 % of control [5 of 6 alive]
same,survivor count,"dose: 200.0 mg/kg/injection, schedule: Q01DX001 (ip), vehicle: Klucel (hydroxypropylcellulose) (HPC)",2 of 6
same,survivor count,"dose: 400.0 mg/kg/injection, schedule: Q01DX001 (ip), vehicle: Klucel (hydroxypropylcellulose) (HPC)",1 of 6
COc1nccc(SC)n1,T/C,[5],125 % of control
same,survivor count,"dose: 300.0 mg/kg/injection, schedule: Q04DX003 (ip), vehicle: Klucel (hydroxypropylcellulose) (HPC)",1 of 6
same,survivor count,[6],0 of 6 and 1 of 6
Cc1nnc(NN)nc1C,survivor count,"dose: 25.0 mg/kg/injection, schedule: Q01DX009 (ip), vehicle: saline with Tween-80",0 of 6
same,survivor count,"dose: 50.0 mg/kg/injection, schedule: Q01DX001 (ip), vehicle: saline with Tween-80",2 of 6
same,survivor count,"dose: 100.0 mg/kg/injection, schedule: Q01DX001 (ip), vehicle: saline with Tween-80",0 of 6
same,survivor count,"dose: 200.0 mg/kg/injection, schedule: Q01DX001 (ip), vehicle: saline with Tween-80",0 of 6
same,survivor count,"dose: 400.0 mg/kg/injection, schedule: Q01DX001 (ip), vehicle: saline with Tween-80",0 of 6
O=C(NCCCN1CC1)C(=O)NCCCN1CC1,T/C,"dose: 3.5 mg/kg/injection, schedule: Q04DX003 (ip), vehicle: Klucel (hydroxypropylcellulose) (HPC)",134 % of control
same,T/C,"dose: 5.3 mg/kg/injection, schedule: Q04DX003 (ip), vehicle: Klucel (hydroxypropylcellulose) (HPC)",129 % of control
same,T/C,"dose: 6.25 mg/kg/injection, schedule: Q04DX003 (ip), vehicle: Klucel (hydroxypropylcellulose) (HPC)",127 % of control
same,survivor count,"dose: 25.0 mg/kg/injection, schedule: Q01DX009 (ip), vehicle: saline",2 of 6
same,survivor count,"dose: 50.0 mg/kg/injection, schedule: Q01DX009 (ip), vehicle: saline",0 of 6
same,survivor count,"dose: 100.0 mg/kg/injection, schedule: Q01DX009 (ip), vehicle: saline",0 of 6
same,survivor count,"dose: 100.0 mg/kg/injection, schedule: Q04DX003 (ip), vehicle: Klucel (hydroxypropylcellulose) (HPC)",0 of 6
same,survivor count,[5],0 of 6
same,survivor count,[6],0 of 6
O=C(CN1CC1)NCCCCCCCCNC(=O)CN1CC1,T/C,"dose: 16.0 mg/kg/injection, schedule: Q01DX009 (ip), vehicle: carboxymethylcellulose (CMC)",149 % of control [5 of 6 alive]
same,T/C,"dose: 22.0 mg/kg/injection, schedule: Q01DX001 (ip), vehicle: carboxymethylcellulose (CMC)",138 % of control
same,T/C,"dose: 22.0 mg/kg/injection, schedule: Q01DX009 (ip), vehicle: carboxymethylcellulose (CMC)",135 % of control
same,T/C,"dose: 25.0 mg/kg/injection, schedule: Q04DX003 (ip), vehicle: Klucel (hydroxypropylcellulose) (HPC)",144 % of control
same,T/C,"dose: 33.0 mg/kg/injection, schedule: Q01DX001 (ip), vehicle: carboxymethylcellulose (CMC)",146 % of control
same,T/C,"dose: 75.0 mg/kg/injection, schedule: Q01DX001 (ip), vehicle: carboxymethylcellulose (CMC)",135 % of control
same,survivor count,"dose: 75.0 mg/kg/injection, schedule: Q01DX009 (ip), vehicle: carboxymethylcellulose (CMC)",6 of 6
same,survivor count,"dose: 100.0 mg/kg/injection, schedule: Q01DX001 (ip), vehicle: carboxymethylcellulose (CMC)",2 of 4
same,survivor count,"dose: 200.0 mg/kg/injection, schedule: Q01DX001 (ip), vehicle: carboxymethylcellulose (CMC)",0 of 4
same,survivor count,"dose: 400.0 mg/kg/injection, schedule: Q01DX001 (ip), vehicle: carboxymethylcellulose (CMC)",0 of 4
CCOc1ccccc1/C=C(\C#N)c1cccc(Cl)c1,survivor count,"dose: 400.0 mg/kg/injection, schedule: Q01DX009 (ip), vehicle: other",6 of 6
CC(=O)Nc1cc(N(CCOS(C)(=O)=O)CCOS(C)(=O)=O)ccc1N=O,T/C,"dose: 0.4 mg/kg/injection, schedule: Q01DX015 (ip), vehicle: saline",130 % of control
same,T/C,"dose: 0.6 mg/kg/injection, schedule: Q01DX015 (ip), vehicle: saline",125 % of control
same,T/C,"dose: 2.2 mg/kg/injection, schedule: Q01DX001 (ip), vehicle: saline",129 % of control
same,T/C,"dose: 3.3 mg/kg/injection, schedule: Q01DX001 (ip), vehicle: saline",131 % of control
same,T/C,"dose: 5.0 mg/kg/injection, schedule: Q01DX001 (ip), vehicle: saline",126 and 128 % of control
same,survivor count,"dose: 20.0 mg/kg/injection, schedule: Q01DX001 (ip), vehicle: saline",2 of 4
same,survivor count,"dose: 40.0 mg/kg/injection, schedule: Q01DX001 (ip), vehicle: saline",1 of 4
same,survivor count,"dose: 50.0 mg/kg/injection, schedule: Q01DX001 (ip), vehicle: saline",0 of 4
same,survivor count,"dose: 80.0 mg/kg/injection, schedule: Q01DX001 (ip), vehicle: saline",0 of 4
same,survivor count,"dose: 100.0 mg/kg/injection, schedule: Q01DX001 (ip), vehicle: saline",0 of 4
same,survivor count,"dose: 200.0 mg/kg/injection, schedule: Q01DX001 (ip), vehicle: saline",0 of 4
same,survivor count,[2],0 of 4
COC(=O)c1ccc(C(=O)OC)[n+]([O-])c1,T/C,[4],133 % of control
